According to publication PMC9558416:
No constants are given. Whether binding was seen depends on the method and setting. For some of these results: In cells and extracts the contact can be indirect. Some binding calls cover weakened binding; strength is not graded here. For some of these results: Where a sequence is shown, tags or fusion partners need not be part of it. Values belong to the molecule of their own block, whether it stands above or below them.

Sequences of proteins named here, by UniProt entry; tags and fusion partners are left off.
UniProt P07355: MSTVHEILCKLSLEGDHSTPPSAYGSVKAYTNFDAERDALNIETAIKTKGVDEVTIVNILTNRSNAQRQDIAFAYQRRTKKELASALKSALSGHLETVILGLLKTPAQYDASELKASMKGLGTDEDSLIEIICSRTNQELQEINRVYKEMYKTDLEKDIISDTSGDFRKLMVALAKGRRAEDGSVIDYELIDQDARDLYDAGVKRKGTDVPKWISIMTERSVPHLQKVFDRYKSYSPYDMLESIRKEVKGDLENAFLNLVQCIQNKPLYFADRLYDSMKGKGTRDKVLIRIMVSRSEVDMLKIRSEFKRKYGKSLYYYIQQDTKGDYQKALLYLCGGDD

Assays:
[1] = biological target: T1, FLAG-RalA (UniProt P11233); experiment: co-IP; RalA-Flag constructs (deletions Δ80–120 and Δ121–160) immunoprecipitated with ANXA2-HA; cells not given
T1 sequence: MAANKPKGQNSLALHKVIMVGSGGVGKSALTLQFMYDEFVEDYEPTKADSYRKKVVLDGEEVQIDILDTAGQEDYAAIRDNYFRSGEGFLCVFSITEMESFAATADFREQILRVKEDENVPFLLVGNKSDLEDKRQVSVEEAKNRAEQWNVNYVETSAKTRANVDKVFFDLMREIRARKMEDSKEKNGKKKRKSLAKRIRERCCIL

[2] = biological target: T1, FLAG-RalA; experiment: co-IP; MDA231 cells with transient RalA overexpression; Pierce Classic Magnetic IP/Co-IP Kit, antibody for FLAG, western blot
[3] = biological target: GST fusion ANXA2 protein (UniProt P07355); experiment: pull-down; GST or GST-ANXA2 recombinant protein on anti-GST Tag magnetic beads, incubated with His-RalA recombinant protein; eluate to western blot; both purified
[4] = biological target: Annexin A2 (ANXA2), endogenous (human (endogenous in MDA231)) (UniProt P07355); experiment: co-IP; endogenous proteins in BC cells; ANXA2-Src also in control or RalA overexpression cells (interaction enhanced) and in DMSO or RBC8 treated cells (binding decreased)

binding [1]: binds
Molecule: ANXA2-HA (from UniProt P07355 1-339)

binding [2]: binds
Molecule: Annexin A2 (ANXA2), endogenous (from UniProt P07355 1-339)

binding [3]: binds
B1: 6*His fusion RalA protein (protein, UniProt P11233 1-206)
chain: T1 sequence

binding [4]: binds
B2: RalA, endogenous (protein, UniProt P11233 1-206)
chain: T1 sequence
